Results reported in patent publication US6500669.
For some of these results: Negatives hold for the conditions tested. For some of these results: Where a protein sequence is shown, tags need not be part of it.

Amino acid sequences for entries named in this document (tags omitted). A change or cut given only in a name is not applied to a line headed by its entry.
UniProt P22629: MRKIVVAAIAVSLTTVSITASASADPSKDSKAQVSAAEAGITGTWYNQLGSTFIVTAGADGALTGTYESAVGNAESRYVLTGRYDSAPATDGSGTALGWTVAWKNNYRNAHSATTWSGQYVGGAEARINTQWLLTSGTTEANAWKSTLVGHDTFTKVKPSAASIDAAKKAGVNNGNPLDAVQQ

Tests used:
[1] = molecular target: streptavidin (UniProt P22629); assay: EMSA; conditions: little binding activity, data not shown, protein details: Pierce, variant of TMP-biotin monoadducted U-17
[2] = molecular target: T1, uracil glycosylase (UniProt P12295); assay: enzyme reaction in vitro; conditions: TMP-biotin (psoralen-biotin) monoadduct at T7 of the central TA; deoxyuridine at position 11; uracil removed; inhibited by about 50 nM lesion-bound streptavidin and restored by free biotin; 5 mM MgCl2, 50 mM KCl, 37 C; protein details: Boehringer-Mannheim; label: 5' …
T1 sequence (looked up, limits assumed): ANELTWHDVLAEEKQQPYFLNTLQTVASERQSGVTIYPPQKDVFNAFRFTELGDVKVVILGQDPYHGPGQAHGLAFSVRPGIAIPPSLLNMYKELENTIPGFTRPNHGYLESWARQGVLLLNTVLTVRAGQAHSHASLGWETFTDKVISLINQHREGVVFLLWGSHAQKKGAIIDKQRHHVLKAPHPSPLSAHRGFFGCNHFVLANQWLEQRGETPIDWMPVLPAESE

[3] = molecular target: T2, hUBF (upstream binding factor, RNA polymerase I transcription factor) (Homo sapiens) (UniProt P17480); assay: footprint; conditions: no DNase I protection of unmodified 100-mer; purified native protein; protein details: homogeneous HeLa hUBF; label: 5' 32P; only the site is given
T2 sequence (looked up, limits assumed): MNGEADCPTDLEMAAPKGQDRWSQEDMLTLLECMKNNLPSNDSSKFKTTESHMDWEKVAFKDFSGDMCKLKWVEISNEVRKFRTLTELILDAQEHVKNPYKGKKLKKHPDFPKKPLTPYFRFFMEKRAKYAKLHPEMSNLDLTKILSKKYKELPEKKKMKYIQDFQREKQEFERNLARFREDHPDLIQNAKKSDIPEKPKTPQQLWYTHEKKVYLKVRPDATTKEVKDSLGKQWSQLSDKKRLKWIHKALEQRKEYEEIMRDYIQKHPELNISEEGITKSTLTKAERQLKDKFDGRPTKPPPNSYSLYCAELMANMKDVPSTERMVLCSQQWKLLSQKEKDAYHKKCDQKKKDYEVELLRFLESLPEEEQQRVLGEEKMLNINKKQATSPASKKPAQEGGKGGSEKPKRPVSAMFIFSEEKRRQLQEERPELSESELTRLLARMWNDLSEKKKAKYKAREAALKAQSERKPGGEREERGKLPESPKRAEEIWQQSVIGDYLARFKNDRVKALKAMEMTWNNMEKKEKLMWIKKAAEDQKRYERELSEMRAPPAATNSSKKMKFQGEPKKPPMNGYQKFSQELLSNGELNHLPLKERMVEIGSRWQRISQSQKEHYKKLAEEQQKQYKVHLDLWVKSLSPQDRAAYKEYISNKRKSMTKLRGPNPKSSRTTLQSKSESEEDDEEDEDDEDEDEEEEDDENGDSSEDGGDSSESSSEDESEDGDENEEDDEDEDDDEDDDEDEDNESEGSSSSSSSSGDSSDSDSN

Does “CGGCCGTACGUGCGCCG / CGGCGCACGTACGGCCG [U-17 monoadducted with psoralen derivative lacking biotin]” bind ([1]; psoralen derivative monoadduct)?
Result: no binding

Does “CGGCCGTACGUGCGCCG / CGGCGCACGTACGGCCG [U-17 unmodified]” bind ([1]; label: 32P)?
Result: no binding

For “CGGCCGTACGUGCGCCG / CGGCGCACGTACGGCCG [TMP-biotin monoadducted U-17]”, which “activity on this sequence” value [2] is on record?
Its value is “active”.

Does “CAGTCTCCTTCTGGTCTCTTCTCAGT (double strand) [Un-100 (unmodified 100 bp analog; printed part only)]” bind [3]?
Result: no binding
